# Measured values taken from the RNAGym collection of RNA variant scans (doi:10.1126/science.aae0568).
# Variants at the floor of the assay are shown more often than the library holds them.
# B1: tRNA (parent)
# chain: GUUCCGUUGGCGUAAUGGUAACGCGUCUCCCUCCUAAGGAGAAGACUGCGGGUUCGAGUCCCGUACGGAACG
# Variants of: B1
# Assay: yeast fitness relative to wild type (ratio to wild type); higher = fitter; tRNA-Arg(CCU), competitive growth, 37 C, YPD
# Summary of the method: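 Gene amplicons from the start population and from each of six end populations were read by 100-nucleotide paired-end sequencing. Those end populations came from pooled Saccharomyces cerevisiae strains carrying tRNA-Arg(CCU) gene variants at the native locus, competed in YPD at 37°C for 24 hours. Fitness relative to wild type was worked out from changes in genotype frequencies. Genotypes needed ≥ 100 starting reads, and estimates < 0.5 were set to 0.5.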
row,Variant,yeast fitness
1,C11U G39A G52C C55G,≤ 0.5
2,U2G A20G U26A A43G G44C U53C,≤ 0.5
3,U8C G17A A20C C24U C61U,≤ 0.5
4,C11G C27A C34U A42U C66G,≤ 0.5
5,C24G C27G A37G,0.575
6,C5G U7A,0.792
7,U32A G41C A43C,≤ 0.5
8,G17A U19C A20G C49G C61A,≤ 0.5
9,G10A A36G G48C,0.691
10,A20U C24G A45G,≤ 0.5
11,C27G U35C G68U,≤ 0.5
12,A20G G23A C29G,≤ 0.5
13,G50C G56A G67A,≤ 0.5
14,U26G C27G C33U G39C C49U C66U,≤ 0.5
15,U3A G9C C27G C34A,≤ 0.5
16,C11G C27U A36U A37U G41C A43C,≤ 0.5
17,C5U A15G U28A C34G C46A,≤ 0.5
18,G12A A45G,0.953
19,C4A U28A C30G U59C,≤ 0.5
20,C31A C34G A45U C66U,≤ 0.5
21,A37G C46A,0.774
22,U3C G51C U59G,≤ 0.5
23,C4G C30U A42U G50C G63C,≤ 0.5
24,C30G C33G C34U A42U A69U,≤ 0.5

row,Variant,yeast fitness
1,U7G C34A G44C C49U G51A,≤ 0.5
2,A14G A20C C27A,≤ 0.5
3,G41C C49A G52A A69C,≤ 0.5
4,G10A C55G G56C,≤ 0.5
5,G17C U35C C60U,≤ 0.5
6,U7G U59G,0.705
7,C11A C27U C31U C34G A40G G63C,≤ 0.5
8,C4A C31A A57U,≤ 0.5
9,U8C G12A C34U C66U,≤ 0.5
10,C27U A36G A40G,≤ 0.5
11,U13C A15U G23A C33A A42G G56A,≤ 0.5
12,U13A G23A U28A C31G C61A A69G,≤ 0.5
13,A15C A43C G58A,≤ 0.5
14,C5G C22U A36G C60A,≤ 0.5
15,G10C C31G,0.631
16,C5U A20U G44C C49U U64G G67A,≤ 0.5
17,A20U G23U A43C A57U G63A,≤ 0.5
18,U2A U8A G67A,≤ 0.5
19,U26G C27G C33U G39C U47C C49U,≤ 0.5
20,A36G G48A C49U,0.606
21,U28C C55U C62A,≤ 0.5
22,G18C A42C A43C C66G,≤ 0.5
23,C31A G50U C62G,≤ 0.5
24,C11U A37U A45C C55G C61A,≤ 0.5

row,Variant,yeast fitness
1,C27G C29U A37G A45G C60A,≤ 0.5
2,A15U C27U A36G,≤ 0.5
3,G38A A40U C55A A57C C66U,≤ 0.5
4,A37G A45U U64A,≤ 0.5
5,G10A C27G G51A U54C C55U A65C,≤ 0.5
6,G6A G51A G63A,≤ 0.5
7,U7A U16C G17A C29U C31A C33A C66G G67U,≤ 0.5
8,U2A G38C A65C,≤ 0.5
9,U3G U28A G63C,≤ 0.5
10,G23A C24G C29U G41A A69U,≤ 0.5
11,G12A G17A C29U U54A G56A,≤ 0.5
12,A15G G17U A37C C46U C49U,≤ 0.5
13,G9C G52U,0.502
14,A20C G25A U32A C34G A37U,≤ 0.5
15,U28A A42G A70C,≤ 0.5
16,A15G C30A C31U A45C C55G,≤ 0.5
17,U26C C33G A42C C49G G58C C62G,0.616
18,U3C C5U U8C U13C C29U C46A A65U C66A,≤ 0.5
19,U19A C30G A36G C61G,≤ 0.5
20,C4U C5G C33U,≤ 0.5
21,C11A U26C C29G C31U C66A,≤ 0.5
22,C33U C34U C66A A70C,≤ 0.5
23,C11G C27U C33G A69U,≤ 0.5
24,G9C C24U C30G G51A A70G,≤ 0.5

row,Variant,yeast fitness
1,C11G C31A G51A C62A,≤ 0.5
2,A43G U47C A65U,0.668
3,U2C C55U,0.792
4,G10C C11U C24U C33G A69U,≤ 0.5
5,C30A C46U G48A C55U U59A,≤ 0.5
6,C4G C11A U32G,≤ 0.5
7,G17A C22G C31G C33G A69C,≤ 0.5
8,C31A C55G A65C G67A,≤ 0.5
9,C11A G56A C66G,0.533
10,G18A G25C G51A A65C,≤ 0.5
11,G9A A14C C22G U54C,≤ 0.5
12,U3A C4G G6A U26G,≤ 0.5
13,U3G C55A A69C,≤ 0.5
14,A37G G39A G58A,≤ 0.5
15,C22U U26A C66A,≤ 0.5
16,G12A A14U C33A,≤ 0.5
17,U26C C27U C31G A43C,≤ 0.5
18,C31A G50C,0.566
19,C5A C24G C61U,≤ 0.5
20,U13C G25C C30G A70C,≤ 0.5
21,G17A G39A C62U,≤ 0.5
22,C24G C31G C66U,≤ 0.5
23,G12A A36C A37C U53G A70C,≤ 0.5
24,C30U A42C G48C A65C,≤ 0.5

row,Variant,yeast fitness
1,U7C U8C G41A A42C G50C A70G,≤ 0.5
2,C29U A42C U54A U59A G67A,≤ 0.5
3,A37C C60U A70C,0.546
4,A42U A43C,0.994
5,G10C C33A C62G,≤ 0.5
6,G6C C24G C34U U53C C55G,≤ 0.5
7,C4A C27G C60U A69U,≤ 0.5
8,A42G C55U A57G,≤ 0.5
9,G10C C55U A65U,≤ 0.5
10,U7A C30U G67A,≤ 0.5
11,C5G U16A C33A U35C A43C G50A A57U C60G,≤ 0.5
12,U16A C22G C34U U64A A65C,≤ 0.5
13,C11U C27G C61A C66U,≤ 0.5
14,C30A A40C,0.712
15,U16G C34U A40G A43G C62A A69C,≤ 0.5
16,C4G A14C A15C U28G C49G G63A,≤ 0.5
17,G44C C46G C55U G67C,≤ 0.5
18,G6A C30A A45U G63A,≤ 0.5
19,C29A C49G C55U,≤ 0.5
20,A14G G18C C60A C66U,≤ 0.5
21,U16A G17A C22G U53A A69C,≤ 0.5
22,U8A U19G C22U G58A,0.568
23,A40U U54A C60G G67C,0.599
24,C4U C46U C62G,≤ 0.5

row,Variant,yeast fitness
1,G6A C27U C29G C61U,≤ 0.5
2,U28G C46U C60A G63A A65U A69U,≤ 0.5
3,U2A C31G C60A C66G,≤ 0.5
4,U2G C4U C11G G18C U32C C34U A45U A70U,≤ 0.5
5,U3A C4G A40C G44A C61G,≤ 0.5
6,C4G A14G C24G,≤ 0.5
7,A20U C27G C29A G51C U53A,≤ 0.5
8,U7G C49U C61G,≤ 0.5
9,G25C C33A G50C U54C,≤ 0.5
10,U2A C31G A65G,0.642
11,G23C G25C U35A A42U A70G,≤ 0.5
12,C27U G38C A40C A42C,≤ 0.5
13,G18A C34U U35C C61U A69G A70C,≤ 0.5
14,U8A U54C,0.657
15,G9A C66G,0.703
16,C22A C31G G68A,≤ 0.5
17,G12A A15G A43C C61G,≤ 0.5
18,G10C C22U G44C A45U,≤ 0.5
19,C11G A43U G67C,0.505
20,U2C A20U,0.91
21,U8A C30G C62U,≤ 0.5
22,C11G C27U A36U A37U G41C A43U C49G C62G,≤ 0.5
23,U28C G44C G56C A70U,≤ 0.5
24,U35A C60G G63A,0.503

row,Variant,yeast fitness
1,U13C C29A G51C U59G G67A,≤ 0.5
2,C27A G58C,1.13
3,U2A C11A G38C C60A A70C,≤ 0.5
4,C4U C22U G68C,≤ 0.5
5,C4A C5G C24U G25A A57U,≤ 0.5
6,U2G C46A G68C,≤ 0.5
7,C27U G41A U47C,1.08
8,G12A U47A G68A,≤ 0.5
9,C33U G63A A70G,≤ 0.5
10,G10A G39C A57C A70U,≤ 0.5
11,U2A U8C G67U,≤ 0.5
12,C24G C60U A70C,≤ 0.5
13,C30U U35C C55A C61A,≤ 0.5
14,C5U A21G C29U C31A G51C,≤ 0.5
15,U8C U19C,0.978
16,U8G C29A,≤ 0.5
17,C5U G9C C11G C24A U26G,≤ 0.5
18,A15G A21C C24G A40U A57G U64A,≤ 0.5
19,C4U U13A C46U U53A,0.633
20,C5U G25A G52C,≤ 0.5
21,C30G C34U A45C U53G C61G,≤ 0.5
22,U3G C5U G10A G18C C24U A45C,0.553
23,U8G A14U G23U G68C,≤ 0.5
